PMC11519634
Substitutions are numbered along the chain they refer to. No constants are given. Whether binding was seen depends on the method and setting. In cells and extracts the contact can be indirect. Some results given as binding are weak or reduced against the parent protein; the word gives no strength. For some of these results: Where a sequence is shown, tags or fusion partners need not be part of it.

Amino acid sequences for entries named in this document (tags omitted).
UniProt Q93008: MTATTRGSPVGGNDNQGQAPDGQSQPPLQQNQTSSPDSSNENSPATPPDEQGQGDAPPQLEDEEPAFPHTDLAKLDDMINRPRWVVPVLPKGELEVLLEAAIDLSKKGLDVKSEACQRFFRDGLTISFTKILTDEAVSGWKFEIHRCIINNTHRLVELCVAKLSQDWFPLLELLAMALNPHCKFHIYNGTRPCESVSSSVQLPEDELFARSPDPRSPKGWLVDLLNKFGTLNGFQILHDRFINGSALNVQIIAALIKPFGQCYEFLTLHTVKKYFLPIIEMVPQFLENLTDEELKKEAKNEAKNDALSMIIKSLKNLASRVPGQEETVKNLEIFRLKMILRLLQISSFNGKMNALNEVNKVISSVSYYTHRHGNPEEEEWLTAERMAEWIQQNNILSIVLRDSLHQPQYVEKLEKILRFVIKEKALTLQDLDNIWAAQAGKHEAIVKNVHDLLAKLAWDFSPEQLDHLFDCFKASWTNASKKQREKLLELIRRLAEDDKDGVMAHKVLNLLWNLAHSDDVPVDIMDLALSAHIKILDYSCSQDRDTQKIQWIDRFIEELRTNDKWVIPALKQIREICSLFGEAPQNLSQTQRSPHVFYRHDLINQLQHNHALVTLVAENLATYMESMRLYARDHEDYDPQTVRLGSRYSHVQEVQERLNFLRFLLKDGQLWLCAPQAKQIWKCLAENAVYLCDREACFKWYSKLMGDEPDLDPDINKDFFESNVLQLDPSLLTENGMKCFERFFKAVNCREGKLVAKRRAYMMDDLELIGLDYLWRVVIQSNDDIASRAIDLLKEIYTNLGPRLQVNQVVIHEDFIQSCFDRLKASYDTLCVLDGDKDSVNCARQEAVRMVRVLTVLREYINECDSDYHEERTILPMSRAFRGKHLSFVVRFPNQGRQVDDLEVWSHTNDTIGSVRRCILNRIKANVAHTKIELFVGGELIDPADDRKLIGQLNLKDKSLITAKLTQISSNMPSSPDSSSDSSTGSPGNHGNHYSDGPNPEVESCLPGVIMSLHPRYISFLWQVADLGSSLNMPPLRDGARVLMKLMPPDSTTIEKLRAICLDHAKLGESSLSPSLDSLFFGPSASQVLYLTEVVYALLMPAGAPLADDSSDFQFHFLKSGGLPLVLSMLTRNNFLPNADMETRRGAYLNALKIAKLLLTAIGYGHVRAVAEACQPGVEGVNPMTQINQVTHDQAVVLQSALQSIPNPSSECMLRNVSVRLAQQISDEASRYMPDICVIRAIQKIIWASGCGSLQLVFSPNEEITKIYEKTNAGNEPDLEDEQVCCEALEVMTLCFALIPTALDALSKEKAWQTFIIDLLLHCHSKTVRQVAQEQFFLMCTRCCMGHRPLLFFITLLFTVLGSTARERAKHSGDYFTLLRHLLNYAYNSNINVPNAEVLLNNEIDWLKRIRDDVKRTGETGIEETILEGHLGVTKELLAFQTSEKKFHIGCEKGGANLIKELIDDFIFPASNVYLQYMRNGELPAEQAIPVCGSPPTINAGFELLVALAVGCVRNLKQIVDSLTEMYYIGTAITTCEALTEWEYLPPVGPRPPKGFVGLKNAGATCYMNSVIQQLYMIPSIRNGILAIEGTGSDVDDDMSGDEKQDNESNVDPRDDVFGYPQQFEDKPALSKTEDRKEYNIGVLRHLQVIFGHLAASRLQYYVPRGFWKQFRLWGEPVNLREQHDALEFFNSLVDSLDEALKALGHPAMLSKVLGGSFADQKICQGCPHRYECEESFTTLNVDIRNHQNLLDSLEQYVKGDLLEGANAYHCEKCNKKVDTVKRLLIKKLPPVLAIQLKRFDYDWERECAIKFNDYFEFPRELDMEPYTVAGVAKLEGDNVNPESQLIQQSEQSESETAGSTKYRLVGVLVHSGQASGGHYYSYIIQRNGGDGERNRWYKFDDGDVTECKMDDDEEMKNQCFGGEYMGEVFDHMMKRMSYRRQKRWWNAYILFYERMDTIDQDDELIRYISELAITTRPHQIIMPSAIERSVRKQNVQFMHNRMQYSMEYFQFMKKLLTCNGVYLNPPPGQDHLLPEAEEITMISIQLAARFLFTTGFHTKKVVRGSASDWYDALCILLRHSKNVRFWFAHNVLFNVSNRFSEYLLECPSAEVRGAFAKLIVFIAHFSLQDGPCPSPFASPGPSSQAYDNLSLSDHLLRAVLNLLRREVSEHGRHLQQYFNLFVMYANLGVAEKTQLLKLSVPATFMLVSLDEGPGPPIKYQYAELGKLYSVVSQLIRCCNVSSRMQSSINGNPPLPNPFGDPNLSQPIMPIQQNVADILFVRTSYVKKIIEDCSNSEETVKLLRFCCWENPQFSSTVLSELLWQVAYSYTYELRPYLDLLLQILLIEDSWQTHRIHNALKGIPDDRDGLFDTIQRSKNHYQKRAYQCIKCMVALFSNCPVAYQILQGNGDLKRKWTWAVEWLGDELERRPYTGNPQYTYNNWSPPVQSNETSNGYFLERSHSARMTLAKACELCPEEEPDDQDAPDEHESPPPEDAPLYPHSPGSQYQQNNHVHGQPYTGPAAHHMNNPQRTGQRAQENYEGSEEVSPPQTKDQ

Experiments:
[1] = molecular target: T1, ETS proto-oncogene 1 (Ets-1) (human (endogenous in HCC827OR)) (UniProt P14921); assay: co-IP; endogenous proteins in HCC827OR cells treated with/without xanthohumol for 24 h, then MG132 for 6 h; IP lysis buffer, 1 μg antibody and protein A agarose beads, 4 °C for 24 h; immunoblotting
T1 sequence: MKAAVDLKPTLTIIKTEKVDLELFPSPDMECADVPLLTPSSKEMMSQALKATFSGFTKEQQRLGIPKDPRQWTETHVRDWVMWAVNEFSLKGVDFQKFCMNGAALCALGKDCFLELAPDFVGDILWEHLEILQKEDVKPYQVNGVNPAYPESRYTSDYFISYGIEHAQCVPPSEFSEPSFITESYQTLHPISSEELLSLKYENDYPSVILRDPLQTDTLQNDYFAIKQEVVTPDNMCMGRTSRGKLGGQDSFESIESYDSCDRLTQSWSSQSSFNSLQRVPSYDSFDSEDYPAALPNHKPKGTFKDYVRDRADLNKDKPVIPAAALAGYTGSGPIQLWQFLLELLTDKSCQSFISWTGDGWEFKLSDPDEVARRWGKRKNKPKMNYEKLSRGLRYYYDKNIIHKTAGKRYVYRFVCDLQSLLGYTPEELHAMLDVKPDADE

[2] = molecular target: T2, Flag-Ets-1 T38D (UniProt P14921); assay: co-IP; Flag-Ets-1 WT, T38A or T38D transfected into HCC827OR cells for 24 h, xanthohumol (3 μM) for 24 h, then MG132 for 6 h; endogenous USP9X; IP lysis buffer, 1 μg antibody and protein A agarose beads, 4 °C for 24 h; immunoblotting
T2 sequence: T1 sequence with T38D

[3] = molecular target: T3, Flag-Ets-1 WT (UniProt P14921); assay: as above
T3 sequence: T1 sequence

[4] = molecular target: T4, Flag-Ets-1 T38A (UniProt P14921); assay: as above
T4 sequence: T1 sequence with T38A

binding [1]: binds | binding [2]: binds | binding [3]: binds | binding [4]: binds
Substance: USP9X (from UniProt Q93008 1-2554) (enzyme)
